Drawing on patent US11980668 (dated 2024), this text covers conjugation yield and step yield for 2 substances.

The nature of the data set: general procedure: solution-phase peptide synthesis; HATU/DIPEA; PyAOP/DIPEA; HOAt or HOBt with PNP carbonate.

Take “4-((5S,8S,11S,12R)-11-((S)-sec-butyl)-12-(2-((S)-2-((1R,2R)-3-(((1S,2R)-1-hydroxy-1-phenylpropan-2-yl)amino)-1-methoxy-2-methyl-3-oxopropyl)pyrrolidin-1-yl)-2-oxoethyl)-5,8-diisopropyl-4,10-dimethyl-3,6,9-trioxo-2,13-dioxa-4,7,10-triazatetradecyl)-3-(3-(3-(2-(2-((1-(3-(2-((1,2-dimethylhydrazinyl)methyl)-1H-pyrrolo[2,3-b]pyridin-1-yl)propanoyl)piperidin-4-yl)amino)ethoxy)ethoxy)propanamido)propanamido)phenyl hydrogen sulfate”: the conjugation yield (conjugation step) was found to be 68%.

Substance “4-((5S,8S,11S,12R)-11-((S)-sec-butyl)-12-(2-((S)-2-((1R,2R)-3-(((1S,2R)-1-hydroxy-1-phenylpropan-2-yl)amino)-1-methoxy-2-methyl-3-oxopropyl)pyrrolidin-1-yl)-2-oxoethyl)-5,8-diisopropyl-4,10-dimethyl-3,6,9-trioxo-2,13-dioxa-4,7,10-triazatetradecyl)-2-(3-(3-(2-(2-((1-(3-(2-((1,2-dimethylhydrazinyl)methyl)-1H-pyrrolo[2,3-b]pyridin-1-yl)propanoyl)piperidin-4-yl)amino)ethoxy)ethoxy)propanamido)propanamido)phenyl hydrogen sulfate” showed a step yield (late stage modification step) of 54%.
